# Laboratory results as given in patent US7854225B2, “Blister package for inhalable medicament” (Glaxo Group Limited, priority 2002, dated 2010).
# Some of these results come from one statement about several compounds together. At least one structure is not confirmed: it was looked up by name or label, or the drawing left a doubt.
# Target: PDE4 catalytic form which binds rolipram with a high affinity versus form which binds rolipram with a low affinity
# Test: PDE4 IC50 ratio (high affinity rolipram binding form / low affinity catalytic form)
# Assay type: biochemical
# Conditions: binding vs 1 nM [3H]R-rolipram; catalytic activity with 1 μM [3H]-cAMP as substrate
row,SMILES,IC50 ratio: IC50 for the PDE4 catalytic form which binds rolipram with a high affinity divided by the IC50 for the form which binds rolipram with a low affinity
1,COC(=O)C1CC(C#N)(c2ccc(OC(F)F)c(OCC3CC3)c2)CCC1=O (stereo not drawn) [2-carbomethoxy-4-cyano-4-(3-cyclopropylmethoxy-4-difluoromethoxyphenyl)cyclohexan-1-one],≥ 0.1
2,COc1ccc([C@]2(C#N)CC[C@@H](C(=O)O)CC2)cc1OC1CCCC1 [cis 4-cyano-4-(3-cyclopentyloxy-4-methoxyphenyl)cyclohexan-1-carboxylic acid],≥ 0.1
3,N#CC1(c2ccc(OC(F)F)c(OCC3CC3)c2)CCC(O)CC1 (stereo not drawn) [cis-[4-cyano-4-(3-cyclopropylmethoxy-4-difluoromethoxyphenyl)cyclohexan-1-ol]],≥ 0.1
